Laboratory results: PubChem BioAssay AID1259259 (Sanger Institute, 2017)

- Purpose: 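Kinase silencing that lowers colorectal cancer cell viability alone or with drugs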 (primary screen)
- System: SW1463 human colorectal cancer cells
- Reagent: siRNA pool against human genes
- Conditions: DMSO vehicle, or one anchor drug: BYL719 at 1 µM, cetuximab at 5 µg/ml, or trametinib at 10 nM
- Read-out: 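Viability relative to control pool 2 (non-targeting) averaged over replicates, robust z-score for knock-down with no drug, and for each anchor drug the mean synergy score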
- Scale: robust z-score, knock-down alone: higher = more viable cells after knock-down; viability, knock-down alone: higher = more viable cells; synergy score with BYL719 and synergy score with cetuximab and synergy score with trametinib: higher = stronger synergy (synthetic lethal) with drug
- Call rule: 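a robust z-score under -3 for knock-down with no drug marks the gene as essential, meaning viability loss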
- Meaning of the calls: active = essential: viability loss from knock-down alone; inactive = no change from knock-down alone
Shown is one part, drawn at random, of 794 deposited reagents. 9 of all reagents (1.1%) were called active. 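Calls rest on knock-down alone, not drug synergy; viability values seem capped at 1.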 No sequences are given here. The record does not give: the amount of reagent, the time to read-out.

Target gene | PubChem SID | robust z-score, knock-down alone | viability, knock-down alone (fraction of control) | synergy score with BYL719 | synergy score with cetuximab | synergy score with trametinib | outcome
EPHA7 (EPH receptor A7) | SID152149990 | 1.13 | 1 | 0.0149 | -0.0272 | -0.0326 | inactive
CSNK1D (casein kinase 1 delta) | SID56478658 | 0.88 | 0.984 | 0.0505 | 0.135 | 0.0928 | inactive
ITPKC (inositol-trisphosphate 3-kinase C) | SID56479112 | -0.715 | 0.882 | 0.15 | 0.228 | 0.173 | inactive
MAGI1 | SID152150294 | -0.448 | 0.899 | -0.101 | 0.0351 | -0.13 | inactive
CSNK2B (casein kinase 2 beta) | SID56479183 | -0.0826 | 0.922 | 0.0725 | 0.143 | 0.149 | inactive
EFNA4 (ephrin A4) | SID134312013 | 1.13 | 1 | 0 | 0.0727 | 0.0134 | inactive
ULK2 (unc-51 like autophagy activating kinase 2) | SID56479062 | -1.31 | 0.844 | -0.0997 | -0.179 | -0.12 | inactive
LRRK2 (leucine rich repeat kinase 2) | SID152152689 | 1.13 | 1 | 0.0186 | -0.0272 | -0.0326 | inactive
CSNK1A1L (casein kinase 1 alpha 1 like) | SID135620867 | 0.214 | 0.941 | 0.0673 | 0.0416 | -0.0893 | inactive
GRK2 (G protein-coupled receptor kinase 2) | SID152155453 | 0.918 | 0.987 | -0.0134 | 0.0825 | -0.0456 | inactive
IP6K3 (inositol hexakisphosphate kinase 3) | SID135621241 | 1.13 | 1 | 0 | 0.217 | 0.0858 | inactive
HIPK3 (homeodomain interacting protein kinase 3) | SID152151658 | -0.493 | 0.896 | 0.0527 | -0.114 | -0.0662 | inactive
PFKL (phosphofructokinase, liver type) | SID56479167 | 1.13 | 1 | 0 | 0.121 | 0.0253 | inactive
PCBP1 (poly(rC) binding protein 1) | SID134316528 | -0.241 | 0.912 | -0.0437 | 0.0326 | -0.00306 | inactive
BRSK1 (BR serine/threonine kinase 1) | SID135620852 | 0.309 | 0.947 | -0.0525 | 0.0382 | 0.0735 | inactive
TWF2 (twinfilin actin binding protein 2) | SID56478547 | -1.17 | 0.852 | -0.12 | 0.0508 | 0.102 | inactive
CDK5R1 (cyclin dependent kinase 5 regulatory subunit 1) | SID135621688 | -0.000521 | 0.928 | 0.0702 | 0.0785 | 0.0293 | inactive
PFKFB4 (6-phosphofructo-2-kinase/fructose-2,6-biphosphatase 4) | SID152152940 | 1.11 | 0.999 | -0.00114 | 0.0571 | -0.0337 | inactive
TBK1 (TANK binding kinase 1) | SID56478726 | 1.13 | 1 | 0 | 0.0658 | 0.106 | inactive
TSSK4 (testis specific serine kinase 4) | SID56478999 | 1.13 | 1 | 0 | 0.0961 | 0 | inactive
NIM1K (NIM1 serine/threonine protein kinase) | SID56478948 | 0.717 | 0.974 | -0.0263 | 0.0405 | 0.148 | inactive

Already shown: entries from further up.
Target gene | PubChem SID | robust z-score, knock-down alone | viability, knock-down alone (fraction of control) | synergy score with BYL719 | synergy score with cetuximab | synergy score with trametinib | outcome
ULK2 (unc-51 like autophagy activating kinase 2) | SID56479062 | -1.31 | 0.844 | -0.0997 | -0.179 | -0.12 | inactive
LRRK2 (leucine rich repeat kinase 2) | SID152152689 | 1.13 | 1 | 0.0186 | -0.0272 | -0.0326 | inactive
CSNK1A1L (casein kinase 1 alpha 1 like) | SID135620867 | 0.214 | 0.941 | 0.0673 | 0.0416 | -0.0893 | inactive
GRK2 (G protein-coupled receptor kinase 2) | SID152155453 | 0.918 | 0.987 | -0.0134 | 0.0825 | -0.0456 | inactive
IP6K3 (inositol hexakisphosphate kinase 3) | SID135621241 | 1.13 | 1 | 0 | 0.217 | 0.0858 | inactive

Further results follow:
Target gene | PubChem SID | robust z-score, knock-down alone | viability, knock-down alone (fraction of control) | synergy score with BYL719 | synergy score with cetuximab | synergy score with trametinib | outcome
GUCY2F (guanylate cyclase 2F, retinal) | SID152150427 | 0.886 | 0.985 | 0.00548 | 0.133 | 0.128 | inactive
MED24 (mediator complex subunit 24) | SID152152726 | 0.733 | 0.975 | -0.0252 | -0.0518 | -0.0487 | inactive
STK38L (serine/threonine kinase 38 like) | SID152156064 | -0.573 | 0.891 | 0.0347 | 0.0902 | -0.0196 | inactive
WIPF1 (WAS/WASL interacting protein family member 1) | SID152149422 | 1.02 | 0.993 | -0.00528 | 0.0296 | 0.0245 | inactive
ABL1 (ABL proto-oncogene 1, non-receptor tyrosine kinase) | SID135620610 | -1.6 | 0.825 | -0.119 | -0.198 | -0.0903 | inactive
CRKL (CRK like proto-oncogene, adaptor protein) | SID152150429 | 1.13 | 1 | 0.0171 | 0.105 | 0.0118 | inactive
TNK1 (tyrosine kinase non receptor 1) | SID152152407 | -1.49 | 0.832 | -0.0241 | 0.12 | -0.0327 | inactive
RTN4 (reticulon 4) | SID134315213 | -0.0375 | 0.925 | -0.0304 | 0.0665 | 0.125 | inactive
SNRK (SNF related kinase) | SID152154333 | -0.157 | 0.918 | 0.0595 | 0.133 | 0.0153 | inactive
PDK3 (pyruvate dehydrogenase kinase 3) | SID152151041 | 0.505 | 0.96 | -0.0117 | 0.129 | -0.0712 | inactive
CDKN2B (cyclin dependent kinase inhibitor 2B) | SID135620642 | -0.813 | 0.875 | -0.125 | -0.0971 | -0.0584 | inactive
CERK (ceramide kinase) | SID152152071 | 0.613 | 0.967 | 0.107 | 0.184 | 0.179 | inactive
MAP2K7 (mitogen-activated protein kinase kinase 7) | SID56478752 | -0.714 | 0.882 | -0.0678 | -0.0119 | 0.198 | inactive
PRKG2 (protein kinase cGMP-dependent 2) | SID56478832 | -0.24 | 0.912 | -0.0878 | 0.118 | -0.118 | inactive
PIK3C2G | SID152155956 | -0.749 | 0.88 | 0.0151 | 0.225 | 0.144 | inactive
TPK1 (thiamin pyrophosphokinase 1) | SID135621256 | -0.99 | 0.864 | -0.0948 | -0.109 | -0.0189 | inactive
BMAL1 (basic helix-loop-helix ARNT like 1) | SID134314841 | -0.36 | 0.905 | 0.0954 | 0.129 | -0.0307 | inactive
WT1 (WT1 transcription factor) | SID152147201 | 0.952 | 0.989 | 0.0386 | 0.00156 | -0.0256 | inactive
CDK16 (cyclin dependent kinase 16) | SID152150805 | 0.432 | 0.955 | -0.00717 | 0.0529 | 0.137 | inactive
PTGS1 (prostaglandin-endoperoxide synthase 1) | SID134310518 | -0.896 | 0.87 | 0.127 | 0.0948 | 0.0625 | inactive
CEP290 (centrosomal protein 290) | SID152154792 | 1.13 | 1 | 0 | 0.00947 | -0.0326 | inactive
EPHB3 (EPH receptor B3) | SID56478503 | -0.978 | 0.865 | -0.0178 | 0.124 | -0.0284 | inactive
TRIM27 (tripartite motif containing 27) | SID152155375 | 0.894 | 0.985 | 0.023 | 0.11 | 0.11 | inactive
DLG3 (discs large MAGUK scaffold protein 3) | SID135621778 | 0.841 | 0.982 | -0.0183 | 0.224 | 0.0648 | inactive
BRD4 (bromodomain containing 4) | SID152154839 | -0.169 | 0.917 | -0.0832 | -0.0373 | -0.0479 | inactive
DYRK1B | SID56478878 | 0.356 | 0.95 | 0.0261 | 0.0777 | 0.183 | inactive
PLK2 (polo like kinase 2) | SID56478648 | 0.151 | 0.937 | 0.0235 | 0.0979 | 0.216 | inactive
GRK1 (G protein-coupled receptor kinase 1) | SID152156219 | -0.612 | 0.888 | 0.0498 | 0.0132 | 0.00709 | inactive
RIPK4 (receptor interacting serine/threonine kinase 4) | SID135620968 | 1.13 | 1 | 0 | 0.0766 | 0.0677 | inactive
